From PubChem BioAssay AID624297 (National Center for Advancing Translational Sciences (NCATS), 2012)
Screen size: about 340,000 compounds; about 6,200 (1.8%) were called active. Inconclusive results, whose numbers are uncertain, are shown with a selection of clear calls. Calls come from the whole dose curve; as a rule, active = well fitted activation curve with a large enough effect; inconclusive = small, poorly fitted or top-dose-only effect; inactive = no such curve, though single readings can be large or run the other way. Where the call is inconclusive, the potency comes from a doubtful curve fit.

test: A quantitative high throughput screen for small molecules that induce DNA re-replication in SW480 colon adenocarcinoma cells.; note: nearly all actives have a fitted effect of over 55% in size; for re-replication activation: % of control where 0% means no effect; details: Hoechst DNA content imaging, 48 h; re-replication activation: at 46.1 µM (top of the series)
Outline: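 SW480 cells exposed to compounds for 48 hr at 37 C, 5% CO2, then Hoechst-stained 40 min. Nuclear DNA content imaged by fluorescence scanning (405 nm excitation, 500-530 nm emission); re-replication scored as increased high-intensity nuclei.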
Potency is the fitted concentration of half-maximal effect.

Row | SMILES | Potency | re-replication activation
1 | CSc1ccc(CN2CCC(CO)(Cc3ccc(Cl)cc3)CC2)cc1 | inconclusive: 29.1 µM [activator, single point] | 
2 | COc1ccc(/C=C2\SC(=NCc3ccccc3)N(Cc3ccccc3)C2=O)cc1OC | inactive | 
3 | Cc1cccc(-n2ncc3c(NCCN4CCOCC4)ncnc32)c1 | inactive | 
4 | COc1cc(C=NOC(=O)Nc2ccccc2)cc(OC)c1OC | inactive | 
5 | O=C(Nc1nnc(-c2cccs2)o1)c1cccc(Oc2ccccc2)c1 | inconclusive: 29.1 µM [activator, partial curve, poor fit] | 
6 | O=C(COC(=O)c1c(F)cccc1F)Nc1ccc(N2CCCCC2)cc1 | inactive | 
7 | C=CCNC(=S)NNC(=O)COc1cccc(Cl)c1 | inconclusive: 35.5 µM [activator, partial curve, poor fit] | 
8 | O=C(OC1CCOC1=O)C1CCN(S(=O)(=O)c2c(Cl)cccc2Cl)CC1 (stereo not given) | inconclusive: 29.1 µM [activator, single point] | 
9 | Cc1sc(NC(=S)NC(=O)c2ccccc2)c(C#N)c1C | inconclusive: 23.1 µM [activator, partial curve, poor fit] | 
10 | Cc1ccc2nc(SCC(=O)c3c[nH]c4ccccc34)[nH]c2c1 | inactive | 
11 | COc1ccc(-c2ccc3c(N)c(C(=O)NC(C)C)sc3n2)cc1OC | active: 18.4 µM | 
12 | O=C(c1ccco1)N1CCN(CCCCN2C(=O)c3ccccc3C2=O)CC1 | inconclusive: 0.731 µM [activator, partial curve, poor fit] | 
13 | CC(Sc1ccc(Cl)cc1)C(=O)NNC(=O)c1ccco1 (stereo not given) | inactive | 
14 | O=C(O)c1c2c(nc3ccccc13)/C(=C/c1ccc(OC(F)F)cc1)CCC2 | inactive | 
15 | CN1OC(c2ccccc2)=C(CO)C1c1ccccc1 (stereo not given) | inconclusive: 32.6 µM [activator, single point] | 
16 | COc1cccc(N/C(=N/C(=S)Nc2ccc(C)cc2C)Nc2nc(C)cc(C)n2)c1 | inconclusive: 11.6 µM [activator, single point] | 
17 | COc1ccc(-n2sc3ccc(F)cc3c2=O)cc1 | inactive | 
18 | CCOc1ccc(Cc2nnc(SCC(=O)Nc3ccc(OC)cc3)n(N)c2=O)cc1 | inconclusive: 0.731 µM [activator, partial curve, poor fit] | 
19 | CCN1C(=O)S/C(=C/c2ccc(Sc3nc4ccccc4[nH]3)o2)C1=O | active: 1.46 µM | 
20 | COc1ccccc1C/C(N)=N/OC(=O)c1ccco1 | inactive | 
21 | Cc1nccc2oc(=O)c(NC(=O)c3ccc(Cl)cc3)cc12 | inactive | 
22 | COC(=O)c1[nH]c2c(c1C)C(=O)CC(c1ccc(OC)cc1)C2 (stereo not given) | inactive | 
23 | COc1ccccc1Nc1ccc2nonc2c1[N+](=O)[O-] | inconclusive: 29.1 µM [activator, single point] | 
24 | c1ccc(-c2nc(NCC3CCCO3)c3ccccc3n2)nc1 (stereo not given) | inconclusive: 20.6 µM [activator, single point] | 

Three entries from above, in markdown:

| Row | SMILES | Potency | re-replication activation |
| --- | --- | --- | --- |
| 17 | COc1ccc(-n2sc3ccc(F)cc3c2=O)cc1 | inactive |  |
| 18 | CCOc1ccc(Cc2nnc(SCC(=O)Nc3ccc(OC)cc3)n(N)c2=O)cc1 | inconclusive: 0.731 µM [activator, partial curve, poor fit] |  |
| 19 | CCN1C(=O)S/C(=C/c2ccc(Sc3nc4ccccc4[nH]3)o2)C1=O | active: 1.46 µM |  |

Next records.

Row | SMILES | Potency | re-replication activation
25 | C[C@H](NC(=O)c1ccc(C(C)(C)C)cc1)C(=O)N1CCN(C/C=C/c2ccccc2)CC1 | inactive | 
26 | COc1cccc(-c2onc3ccc(C(=O)/C=C/N(C)C)cc23)c1 | inconclusive: 29.1 µM [activator, single point] | 
27 | CCN(C[C@H]1N[C@@](Cc2ccccc2)(C(=O)OC)[C@H]2C(=O)N(C)C(=O)[C@@H]12)C(=O)C1CCCCC1 | inconclusive: 25.9 µM [activator, single point] | 
28 | CCC1=NN(C(=O)c2ccccc2O)C(O)(c2ccccc2)C1 (stereo not given) | active: 16.4 µM | 
29 | CC(C)CN1C(=O)C(=O)N(CC(=O)NC(C)CCc2ccccc2)C1=O (stereo not given) | inconclusive: 4.61 µM [activator, full curve, poor fit] | 
30 | Cc1ccc(S(=O)(=O)N(C)C)cc1NC(=O)c1cc(S(=O)(=O)N2CCCCC2)ccc1N1CCOCC1 | inactive | 
31 | CCOC(=O)c1sc(Nc2nc(C)cc(C)n2)nc1C | inconclusive: 6.51 µM [activator, partial curve, poor fit] | 
32 | O=C(c1csc2c1CCCC2)N1CCN(c2ccc(F)cc2)CC1 | inactive | 
33 | Cc1nn(C(C)C(=O)NCc2ccc(Cl)cc2)c(=O)c2cc3occc3n12 (stereo not given) | inactive | 
34 | Cn1c(=O)c2[nH]c(COc3ccccc3)nc2n(C)c1=O | inactive | 
35 | O=C(CCc1ccccc1)NC(NC(=S)Nc1ccc(Cl)cc1)C(Cl)(Cl)Cl (stereo not given) | inconclusive: 0.651 µM [activator, full curve, poor fit] | 
36 | Cc1cc2nc(NCCCO)n(CC(=O)c3cc(C(C)(C)C)c(O)c(C(C)(C)C)c3)c2cc1C | inconclusive: 2.06 µM [activator, partial curve, poor fit] | 
37 | COc1ccc2[nH]cc(CCNC(=O)CC[C@H]3O[C@@H](n4cc(C)c(=O)[nH]c4=O)C[C@@H]3O)c2c1 | inactive | 
38 | CCOC(=O)[C@H]1[C@H]2COc3ccccc3[C@@H]2N2C(=O)CN(Cc3ccccc3)C(=O)[C@@]12C | inconclusive: 32.6 µM [activator, single point] | 
39 | Cc1oc(-c2ccc(Cl)cc2)nc1CS(=O)CC(=O)NC(C)c1ccccc1 (stereo not given) |  | inconclusive: -6.72% [activator]
40 | O=C(c1cc(-c2ccc(Cl)cc2Cl)on1)N1CCCCCC1 | inconclusive: 29.1 µM [activator, single point] | 
41 | COc1cc(Cl)c(C)cc1NC(=O)COC(=O)c1cc[n+]([O-])cc1 | inactive | 
42 | CCc1ccc(NC(=O)C2CCN(S(=O)(=O)c3c(C)noc3/C=C/N(C)C)CC2)cc1 | inconclusive: 23.1 µM [activator, single point] | 
43 | Cc1ccc(CNC(=O)c2ccc(CS(=O)Cc3ccccc3Cl)o2)cc1 (stereo not given) | inconclusive: 25.9 µM [activator, single point] | 
44 | Cc1cc(C)nc(SCC(=O)N(C)CC(=O)Nc2c(Cl)cccc2Cl)n1 | inconclusive: 29.1 µM [activator, single point] | 
45 | CCN(Cc1ccccc1)Cc1cc(OC)cc(OC)c1 | inconclusive: 16.4 µM [activator, single point] | 
46 | N#Cc1cc2c(=O)n3ccccc3nc2n(-c2ccc(Cl)cc2)c1=O | inconclusive: 4.61 µM [activator, partial curve, poor fit] | 
47 | Cc1ccc(C)c(NC(=S)N(C)C)c1 | inconclusive: 0.231 µM [activator, full curve, poor fit] | 
48 | COc1ccc(N(C(=O)Cn2cnc3ccccc32)C(C(=O)NC2CCCCC2)c2ccccc2)cc1 (stereo not given) | active: 23.1 µM | 

Row | SMILES | Potency | re-replication activation
49 | CCc1ccc(OCC(=O)OCC(=O)c2c(N)n(C)c(=O)n(C)c2=O)cc1 | inconclusive: 0.82 µM [activator, full curve, poor fit] | 
50 | CC1CCCN(C(=O)CN2CCC(c3nc4ccc(Cl)cc4[nH]3)CC2)C1 (stereo not given) | inactive | 
51 | COC(=O)C1C(=O)C(C(=O)/C=C/c2ccccc2)C(=O)CC1(C)C (stereo not given) | inconclusive: 0.82 µM [activator, partial curve, poor fit] | 
52 | Cc1ccc(C(=O)NCCN2CCOCC2)cc1C | inconclusive: 29.1 µM [activator, single point] | 
53 | CCOc1ccccc1OCCCC(=O)Nc1cc(S(=O)(=O)N2CCOCC2)ccc1OC | inconclusive: 23.1 µM [activator, single point] | 
54 | COc1ccc(CNS(=O)(=O)c2ccc3c(c2)NC(=O)C(C)S3)cc1 (stereo not given) | inconclusive: 7.31 µM [activator, single point] | 
55 | COc1ccc(OCCNC(=S)Nc2cccc3ccccc23)cc1 | inconclusive: 29.1 µM [activator, single point] | 
56 | O=C(Nc1nc(-c2ccccn2)cs1)Nc1ccc(F)cc1F | inconclusive: 1.64 µM [activator, partial curve, poor fit] | 
57 | O=C(Nc1cc(Cl)ccn1)C1CCN(S(=O)(=O)c2cccs2)CC1 | inactive | 
58 | O=C(CCCCCn1c(=S)[nH]c2ccc(N3CCOCC3)cc2c1=O)NCc1ccc2c(c1)OCO2 | inconclusive: 29.1 µM [activator, single point] | 
59 | COc1cc(/C=C(\C#N)C(=O)Nc2ccc3c(c2)OCCO3)ccc1O | inconclusive: 29.1 µM [activator, single point] | 
60 | Cc1ccc(C2C=C(c3ccc4c(c3)OCO4)Nc3ncnn32)cc1 (stereo not given) | inconclusive: 2.59 µM [activator, partial curve, poor fit] | 
61 | COCc1c(C(=O)NCCOc2ccc(Cl)cc2)oc2ccccc12 | inactive | 
62 | Cc1ccc(S(=O)(=O)c2cn(C)c3cc(N4CCN(C)CC4)c(F)cc3c2=O)cc1 | inconclusive: 20.6 µM [activator, single point] | 
63 | CN(C)CC/C=C1\c2ccccc2Sc2cc(F)c(Cl)cc21 | inconclusive: 18.4 µM [activator, single point] | 
64 | Cc1ccc(-c2nc3ccccc3n2C)o1 | inconclusive: 29.1 µM [activator, single point] | 
65 | CC1(O)CC(c2ccc(Cl)cc2)=NN1C(=O)c1ccc(Cl)cc1 (stereo not given) | inconclusive: 16.4 µM [activator, single point] | 
66 | COc1ccc(N(C(=O)Cc2cccs2)C(C(=O)NC2CCCC2)c2ccncc2)cc1 (stereo not given) | inactive | 
67 | Cc1cccc(NC(=O)c2cnn3ccccc23)c1C | inconclusive: 9.2 µM [activator, partial curve] | 
68 | COc1cc(/C=C/C(O)=C/C(=O)/C=C/c2ccc(O)cc2)ccc1O | inconclusive: 29.1 µM [activator, single point] | 
69 | O=S(=O)(Nc1ccccc1N1CCCCC1)c1cccs1 | inconclusive: 4.11 µM [activator, full curve] | 
70 | CCCc1cc(NCc2ccccn2)n2c(nc3ccccc32)c1C#N | inconclusive: 9.2 µM [activator, partial curve] | 
